Values quoted from earlier work, collected in US20120207744A1, “REPROGRAMMING COMPOSITIONS AND METHODS OF USING THE SAME” (priority 2009, published 2012).
Some results were stated once for a whole list of compounds, not compound by compound.

System: human ESCs
Conditions: defined medium, such as TeSR medium, on Matrigel-coated culture dishes

Cc1cncc2cccc(S(=O)(=O)N3CCCNC[C@@H]3C)c12.Cl.Cl [H-1152, (S)-(+)-2-methyl-1-[(4-methyl-5-isoquinolinyl)sulfonyl]homopiperazine dihydrochloride]
cloning efficiency: > 1%
